# From PubChem BioAssay (NCATS)
# Inconclusive means that the source gave no clear call. Such entries were picked first, then a sample of the others. Where the call is inconclusive, the potency comes from a doubtful curve fit. Activity calls are given as the source filed them. Calls come from the whole dose curve; as a rule, active = well fitted curve in the direction sought with a large enough effect; inconclusive = small, poorly fitted or top-dose-only effect, or another doubt; inactive = no such curve, though single readings can be large; an effect the other way counts as inactive or inconclusive.
# What was measured:
# [1] = Quantitative High-Throughput drug screen in 47 multiple myeloma cell lines against the NCATS MIPE library collection: JIM3_ECACC cell viability assay (AID 1918963; note: nearly all actives have a fitted effect of over 35% in size); conditions: JIM3 myeloma viability, CellTiter-Glo ATP, 48 h; series mostly up to 45.8 µM
# How it was run: (§1)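 Myeloma cells (500 per well) were exposed to MIPE 4.0 compounds by pin transfer and incubated 48 hours at 37C, 5% CO2. Viability was read as ATP by CellTiter-Glo luminescence, normalised to DMSO (100%) and media-only (0%) wells.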
# [2] = Quantitative High-Throughput drug screen in 47 multiple myeloma cell lines against the NCATS MIPE library collection: JIM1_ECACC cell viability assay (AID 1918964); conditions: JIM1 myeloma viability, CellTiter-Glo ATP luminescence, 48 h; viability (% of DMSO): at 45.8 µM (top of the series)
# How it was run: (§2)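 Primary qHTS used for cherry-picking: cells at 500/well, library compounds for 48 h (37C, 5% CO2), luminescent ATP assay.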
# [3] = Quantitative High-Throughput drug screen in 47 multiple myeloma cell lines against the NCATS MIPE library collection: INA6_PLB cell viability assay (AID 1918965; note: nearly all actives have a fitted effect of over 55% in size); conditions: INA6 myeloma viability, CellTiter-Glo ATP luminescence, 48 h; viability (% of control): at 45.8 µM (top of the series)
# How it was run: (§3)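 CellTiter-Glo ATP luminescence gave viability after 48 h compound treatment at 37C of 500 multiple myeloma cells per well. Normalisation used DMSO-only wells as 100% and media-only wells as 0% viability; primary qHTS of approved and investigational drugs.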
# [4] = Quantitative High-Throughput drug screen in 47 multiple myeloma cell lines against the NCATS MIPE library collection: JJN3_DSMZ cell viability assay (AID 1918966; note: nearly all actives have a fitted effect of over 50% in size); conditions: JJN3 myeloma cells viability, CellTiter-Glo ATP, 48 h; series mostly up to 45.8 µM
# How it was run: as §2
# [5] = Quantitative High-Throughput drug screen in 47 multiple myeloma cell lines against the NCATS MIPE library collection: Karpas25_ECACC cell viability assay (AID 1918968; note: nearly all actives have a fitted effect of over 35% in size); conditions: Karpas25 myeloma viability, CellTiter-Glo ATP, 48 h; viability (% of control): at 45.8 µM (top of the series)
# How it was run: as §2
# [6] = Quantitative High-Throughput drug screen in 47 multiple myeloma cell lines against the NCATS MIPE library collection: KMS12PE_JCRB cell viability assay (AID 1918972); conditions: KMS12PE myeloma viability, CellTiter-Glo ATP, 48 h; viability: at 45.8 µM (top of the series); note: nearly all actives have a fitted effect of over 30% in size
# How it was run: as §3
# [7] = Quantitative High-Throughput drug screen in 47 multiple myeloma cell lines against the NCATS MIPE library collection: KMS26_JCRB cell viability assay (AID 1918975); conditions: KMS26 myeloma cells viability, CellTiter-Glo ATP, 48 h; viability (% of DMSO): at 45.8 µM (top of the series); note: nearly all actives have a fitted effect of over 45% in size
# How it was run: as §1
# [8] = Quantitative High-Throughput drug screen in 47 multiple myeloma cell lines against the NCATS MIPE library collection: MMM1_PLB cell viability assay (AID 1918976); note: nearly all actives have a fitted effect of over 35% in size
# How it was run: (§4)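 ATP-based CellTiter-Glo luminescence after 48 h drug exposure (37 °C, 5% CO2) of 500 myeloma cells per well. DMSO-only wells set 100% viability, media-only wells 0%; MIPE 4.0 library added by pin tool.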
# [9] = Quantitative High-Throughput drug screen in 47 multiple myeloma cell lines against the NCATS MIPE library collection: MOLP8_DSMZ cell viability assay (AID 1918977); conditions: MOLP8 myeloma viability, CellTiter-Glo ATP luminescence, 48 h; viability (% of control): at 45.8 µM (top of the series); note: nearly all actives have a fitted effect of over 45% in size
# How it was run: as §4
# [10] = Quantitative High-Throughput drug screen in 47 multiple myeloma cell lines against the NCATS MIPE library collection: NCIH929_DSMZ cell viability assay (AID 1918978); note: nearly all actives have a fitted effect of over 35% in size
# How it was run: as §4
# [11] = Quantitative High-Throughput drug screen in 47 multiple myeloma cell lines against the NCATS MIPE library collection: MM1S_ATCC cell viability assay (AID 1918980); note: nearly all actives have a fitted effect of over 45% in size
# How it was run: as §4
# [12] = Quantitative High-Throughput drug screen in 47 multiple myeloma cell lines against the NCATS MIPE library collection: MM1R_ATCC cell viability assay (AID 1918981); note: nearly all actives have a fitted effect of over 35% in size
# How it was run: as §4
# [13] = Quantitative High-Throughput drug screen in 47 multiple myeloma cell lines against the NCATS MIPE library collection: LP1_DSMZ cell viability assay (AID 1918982); note: nearly all actives have a fitted effect of over 35% in size
# How it was run: as §4
# [14] = Quantitative High-Throughput drug screen in 47 multiple myeloma cell lines against the NCATS MIPE library collection: KMS28PE_JCRB cell viability assay (AID 1918983); note: nearly all actives have a fitted effect of over 35% in size
# How it was run: as §4
# [15] = Quantitative High-Throughput drug screen in 47 multiple myeloma cell lines against the NCATS MIPE library collection: KMS12BM_JCRB cell viability assay (AID 1918971); note: nearly all actives have a fitted effect of over 35% in size
# How it was run: as §1
# [16] = Quantitative High-Throughput drug screen in 47 multiple myeloma cell lines against the NCATS MIPE library collection: KMS20_JCRB cell viability assay (AID 1918973); conditions: CellTiter-Glo ATP, 48 h; viability (% of DMSO): at 45.8 µM (top of the series); note: nearly all actives have a fitted effect of over 45% in size
# How it was run: as §2
# [17] = Quantitative High-Throughput drug screen in 47 multiple myeloma cell lines against the NCATS MIPE library collection: OCIMY1_PLB cell viability assay (AID 1918979); note: nearly all actives have a fitted effect of over 35% in size
# How it was run: as §4
# [18] = Quantitative High-Throughput drug screen in 47 multiple myeloma cell lines against the NCATS MIPE library collection: H1112_PLB cell viability assay (AID 1918967; note: nearly all actives have a fitted effect of over 30% in size); conditions: H1112 myeloma cells viability, ATP luminescence, 48 h; viability: at 45.8 µM (top of the series)
# How it was run: as §2
# [19] = Quantitative High-Throughput drug screen in 47 multiple myeloma cell lines against the NCATS MIPE library collection: KMS27_JCRB cell viability assay (AID 1918970); conditions: KMS27 myeloma cells, CellTiter-Glo ATP viability, 48 h; viability (% of DMSO): at 45.8 µM (top of the series); note: nearly all actives have a fitted effect of over 30% in size
# How it was run: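 Each line is seeded at 500 cells per well and treated with library compounds for 48 hours under 37 °C, 5% CO2. CellTiter-Glo is then added for 5 min at room temperature before median relative luminescence is recorded.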
# [20] = Quantitative High-Throughput drug screen in 47 multiple myeloma cell lines against the NCATS MIPE library collection: KMS21BM_JCRB cell viability assay (AID 1918974); conditions: ATP luminescence, 48 h; viability: at 45.8 µM (top of the series) unless noted
# How it was run: as §2
# Potency is the fitted concentration of half-maximal effect.
Compound,Potency [1],Potency [2],Potency [3],Potency [4],Potency [5],Potency [6],Potency [7],Potency [8],Potency [9],Potency [10],Potency [11],Potency [12],Potency [13],Potency [14],Potency [15],Potency [16],Potency [17],Potency [18],Potency [19],Potency [20]
Nc1nc(-c2nn(Cc3ccccc3F)c3ncccc23)nc(N)c1N1CCOCC1,"inconclusive: 1.18 µM [cytotoxic, partial curve, poor fit]",inactive,"inconclusive: 29.6 µM [cytotoxic, single point]",inactive,"inconclusive: 26.4 µM [cytotoxic, partial curve]","inconclusive: 33.2 µM [cytotoxic, single point]",inactive,"inconclusive: 0.0083 µM [rising, full curve]",inactive,"inconclusive: 33.2 µM [cytotoxic, single point]",inactive,"inconclusive: 0.935 µM [rising, partial curve, poor fit]","inconclusive: 37.2 µM [cytotoxic, single point]",inactive,–,–,–,–,–,–
CCOC(=O)O[C@]1(C(=O)OCCl)CC[C@@H]2[C@H]3CCC4=CC(=O)C=C[C@]4(C)[C@@H]3[C@@H](O)C[C@@]21C,inactive,"inconclusive: 37.2 µM [cytotoxic, single point]",inactive,"inconclusive: 0.0019 µM [rising, full curve, poor fit]",–,–,"inconclusive: 0.0743 µM [cytotoxic, full curve, poor fit]","inconclusive: 0.0033 µM [rising, full curve, poor fit]",inactive,–,"inconclusive: 0.935 µM [cytotoxic, full curve]",inactive,–,–,"inconclusive: 0.0296 µM [rising, full curve, poor fit]","inconclusive: 37.2 µM [cytotoxic, single point]",inactive,–,–,–
O=C1NC(=O)C(=Cc2cccc(C(F)(F)F)c2)S1,"inconclusive: 33.2 µM [cytotoxic, single point]","inconclusive: 0.0059 µM [rising, full curve, poor fit]","inconclusive: 18.7 µM [cytotoxic, partial curve, poor fit]",–,"inconclusive: 33.2 µM [cytotoxic, single point]","inconclusive: 23.5 µM [cytotoxic, partial curve]","inconclusive: 23.5 µM [cytotoxic, single point]",–,inactive,"inconclusive: 37.2 µM [cytotoxic, single point]","inconclusive: 29.6 µM [cytotoxic, partial curve, poor fit]",–,–,"inconclusive: 4.18 µM [cytotoxic, partial curve, poor fit]",active: 20.9 µM,"inconclusive: 0.372 µM [cytotoxic, partial curve, poor fit]",–,"inconclusive: 20.9 µM [cytotoxic, single point]","inconclusive: 13.2 µM [cytotoxic, partial curve, poor fit]",–
CC(C)(C)c1[nH]cnc1C=c1[nH]c(=O)c(=Cc2ccccc2)[nH]c1=O,inactive,inactive,"inconclusive: 0.0068 µM [cytotoxic, full curve]",–,–,"inconclusive: 0.0605 µM [cytotoxic, full curve]",–,–,–,–,"inconclusive: 0.152 µM [cytotoxic, full curve]","inconclusive: 0.171 µM [cytotoxic, full curve]",–,"inconclusive: 0.0762 µM [cytotoxic, full curve, poor fit]","inconclusive: 0.171 µM [cytotoxic, full curve]","inconclusive: 1.21 µM [cytotoxic, full curve]","inconclusive: 67.9 µM [cytotoxic, single point]","inconclusive: 0.027 µM [cytotoxic, full curve]","inconclusive: 17.1 µM [cytotoxic, partial curve, poor fit]","inconclusive: 0.0061 µM [cytotoxic, full curve, poor fit]"
CO[C@H]1C=CO[C@@]2(C)Oc3c(C)c(O)c4c(O)c(c(C=NN5CCN(C)CC5)c(O)c4c3C2=O)NC(=O)C(C)=CC=C[C@H](C)[C@H](O)[C@@H](C)[C@@H](O)[C@@H](C)[C@H](OC(C)=O)[C@H]1C,"inconclusive: 0.0598 µM [cytotoxic, partial curve, poor fit]",inconclusive: 0.0007 µM,"inconclusive: 0.0095 µM [cytotoxic, full curve, poor fit]",active: 1.19 µM,"inconclusive: 0.0085 µM [cytotoxic, full curve, poor fit]","inconclusive: 1.06 µM [cytotoxic, partial curve, poor fit]","inconclusive: 0.475 µM [cytotoxic, full curve, poor fit]","inconclusive: 0.0169 µM [cytotoxic, full curve, poor fit]","inconclusive: 1.5 µM [cytotoxic, partial curve, poor fit]",–,inactive,–,–,"inconclusive: 0.0189 µM [cytotoxic, full curve, poor fit]","inconclusive: 0.475 µM [cytotoxic, partial curve, poor fit]","inconclusive: 0.0015 µM [cytotoxic, full curve, poor fit]",–,–,–,"inconclusive: 7.53 µM [rising, partial curve]"
CN1CCN(CCCN2c3ccccc3Sc3ccc(Cl)cc32)CC1,active: 23.5 µM,active: 3.32 µM,active: 14.8 µM,–,–,–,–,–,"inconclusive: 29.6 µM [cytotoxic, single point]",–,–,–,"inconclusive: 23.5 µM [cytotoxic, partial curve]","inconclusive: 33.2 µM [cytotoxic, single point]",–,active: 8.33 µM,–,–,–,active: 6.62 µM
CN(C)[C@@H](CCOc1cccc2ccccc12)c1ccccc1,"inconclusive: 18.7 µM [cytotoxic, partial curve]",inactive,–,"inconclusive: 23.5 µM [cytotoxic, partial curve, poor fit]","inconclusive: 16.6 µM [cytotoxic, partial curve]","inconclusive: 7.43 µM [cytotoxic, single point]",–,–,"inconclusive: 6.62 µM [cytotoxic, partial curve, poor fit]",active: 20.9 µM,–,"inconclusive: 26.4 µM [cytotoxic, single point]","inconclusive: 18.7 µM [cytotoxic, partial curve]",–,"inconclusive: 18.7 µM [cytotoxic, partial curve]",active: 14.8 µM,–,–,inactive,"inconclusive: 16.6 µM [rising, partial curve, poor fit]"
N#Cc1ccc(Oc2ccc3c(c2)COB3O)cc1,"inconclusive: 26.4 µM [cytotoxic, single point]","inconclusive: 37.2 µM [cytotoxic, single point]",–,"inconclusive: 16.6 µM [cytotoxic, partial curve, poor fit]","inconclusive: 23.5 µM [cytotoxic, partial curve]","inconclusive: 23.5 µM [cytotoxic, partial curve]","inconclusive: 2.64 µM [cytotoxic, partial curve, poor fit]",–,"inconclusive: 8.33 µM [rising, partial curve, poor fit]","inconclusive: 26.4 µM [cytotoxic, single point]","inconclusive: 0.0074 µM [rising, full curve, poor fit]","inconclusive: 14.8 µM [cytotoxic, partial curve, poor fit]","inconclusive: 20.9 µM [cytotoxic, partial curve]",–,"inconclusive: 20.9 µM [cytotoxic, partial curve, poor fit]","inconclusive: 16.6 µM [cytotoxic, partial curve, poor fit]",–,"inconclusive: 18.7 µM [cytotoxic, partial curve, poor fit]",active: 23.5 µM,active: 3.32 µM
CC[C@H](C=C[C@@H](C)[C@H]1CC[C@H]2[C@@H]3CC=C4C[C@@H](O)CC[C@]4(C)[C@@H]3CC[C@]12C)C(C)C,"inconclusive: 0.0457 µM [cytotoxic, partial curve, poor fit]","inconclusive: 0.0812 µM [cytotoxic, full curve, poor fit]",–,inactive,inactive,–,–,–,"inconclusive: 3.63 µM [cytotoxic, partial curve, poor fit]",–,inactive,inactive,–,"inconclusive: 8.12 µM [cytotoxic, partial curve, poor fit]",inactive,inactive,inactive,–,inactive,–
COc1ccc2c(Oc3ccc(NC(=O)c4c(C)n(CC(C)(C)O)n(-c5ccccc5)c4=O)cc3F)ccnc2c1,"inconclusive: 23.5 µM [cytotoxic, single point]","inconclusive: 33.2 µM [cytotoxic, single point]","inconclusive: 33.2 µM [cytotoxic, single point]",–,"inconclusive: 23.5 µM [cytotoxic, single point]",active: 26.4 µM,inactive,"inconclusive: 33.2 µM [cytotoxic, partial curve, poor fit]",–,–,"inconclusive: 33.2 µM [cytotoxic, single point]","inconclusive: 23.5 µM [cytotoxic, partial curve, poor fit]","inconclusive: 18.7 µM [cytotoxic, partial curve]","inconclusive: 26.4 µM [cytotoxic, single point]",–,"inconclusive: 37.2 µM [cytotoxic, partial curve, poor fit]","inconclusive: 37.2 µM [cytotoxic, single point]",–,active: 20.9 µM,–

# Some values from the entries so far:
# Value of CCOC(=O)O[C@]1(C(=O)OCCl)CC[C@@H]2[C@H]3CCC4=CC(=O)C=C[C@]4(C)[C@@H]3[C@@H](O)C[C@@]21C under Potency [12]: inactive
# Value of CC[C@H](C=C[C@@H](C)[C@H]1CC[C@H]2[C@@H]3CC=C4C[C@@H](O)CC[C@]4(C)[C@@H]3CC[C@]12C)C(C)C under Potency [4]: inactive
